Whole data set: some 33,000 sequences, median “E-score (-0.5 to 0.5)” near -0.015, cut for the highest 2% near 0.3. The list shows a part of the results.
What follows are sequences tested against T1, Abf1 (UniProt P14164) (assay: PBM E-score (8-mer binding enrichment) (E-score (-0.5 to 0.5)); higher = stronger / more preferred TF binding). Details: protein concentration: 200 nM; construct: GST-full length.
T1 sequence: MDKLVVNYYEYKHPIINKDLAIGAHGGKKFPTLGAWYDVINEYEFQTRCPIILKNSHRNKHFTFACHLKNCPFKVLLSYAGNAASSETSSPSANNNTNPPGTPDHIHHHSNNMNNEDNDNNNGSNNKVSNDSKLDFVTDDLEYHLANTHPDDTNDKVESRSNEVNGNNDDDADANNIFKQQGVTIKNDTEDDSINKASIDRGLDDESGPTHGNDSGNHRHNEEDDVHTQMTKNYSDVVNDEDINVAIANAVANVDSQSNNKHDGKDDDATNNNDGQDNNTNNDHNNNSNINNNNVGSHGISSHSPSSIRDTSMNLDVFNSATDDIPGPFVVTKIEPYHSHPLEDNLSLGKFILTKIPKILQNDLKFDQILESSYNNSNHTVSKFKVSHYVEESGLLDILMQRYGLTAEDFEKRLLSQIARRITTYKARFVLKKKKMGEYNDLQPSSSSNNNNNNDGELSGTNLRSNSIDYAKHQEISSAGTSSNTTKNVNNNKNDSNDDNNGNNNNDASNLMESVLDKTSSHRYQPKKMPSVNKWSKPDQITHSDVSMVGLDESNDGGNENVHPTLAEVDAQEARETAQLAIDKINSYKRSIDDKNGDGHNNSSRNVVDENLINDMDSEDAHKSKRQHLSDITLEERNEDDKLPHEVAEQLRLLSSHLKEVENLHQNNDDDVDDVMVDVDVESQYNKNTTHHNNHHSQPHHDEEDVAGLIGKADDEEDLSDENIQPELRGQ
Outline: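 GST-tagged yeast TFs (full-length or DNA-binding domain) were made by PURExpress in vitro transcription/translation and applied at about 100-200 nM to universal all-10-mer Agilent arrays. The arrays were made double-stranded by primer extension, on fresh or once-stripped slides. Bound protein was detected with fluorescent anti-GST, and scans were normalised with masliner. Each ungapped eight-base word, pooled with its reverse complement, received an E-score (modified Wilcoxon-Mann-Whitney statistic) from the Universal PBM Analysis Suite.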

Q: ACGCGCTC was tested. Which “PBM E-score” value did it give?
A: 0.0329

Q: With ATCAGGAG as the sequence, how does the “PBM E-score” value read?
A: -0.127

Q: How did the “PBM E-score” value turn out when AGCGCCAC was run?
A: -0.0429

Q: Which “PBM E-score” value does the source give for ACTTAACC here?
A: 0.0363

Q: How did the “PBM E-score” value turn out when GAGCTCCC was run?
A: -0.216

Q: Which “PBM E-score” value does the source give for TGAAGTAA here?
A: 0.06

Q: AAAAGATC was tested. Which “PBM E-score” value did it give?
A: 0.0313

Q: For TACCTGGA, which “PBM E-score” value is on record?
A: 0.0454

Q: CGGCGACC was tested. Which “PBM E-score” value did it give?
A: -0.0958

Q: How did the “PBM E-score” value turn out when AGCTTCAC was run?
A: -0.0981

Q: How did the “PBM E-score” value turn out when CTTATTCC was run?
A: -0.0725

Q: Which “PBM E-score” value does the source give for ATAGAGAC here?
A: 0.0179

Q: How did the “PBM E-score” value turn out when ATACAGAC was run?
A: -0.0512

Q: For CGAGTAGC, which “PBM E-score” value is on record?
A: 0.0908

Q: Which “PBM E-score” value does the source give for GTAAGTAA here?
A: 0.0481

Q: For GAGATAAC, which “PBM E-score” value is on record?
A: 0.138

Q: For GTAGATCA, which “PBM E-score” value is on record?
A: 0.319

Q: ACTCACTA was tested. Which “PBM E-score” value did it give?
A: 0.132

Q: Which “PBM E-score” value does the source give for ATCGGCAG here?
A: -0.163

Q: ACAAACGG was tested. Which “PBM E-score” value did it give?
A: 0.225

Q: With AGAGCTCC as the sequence, how does the “PBM E-score” value read?
A: -0.15

Q: With GTAGGCTA as the sequence, how does the “PBM E-score” value read?
A: -0.129

Q: ATACAACA was tested. Which “PBM E-score” value did it give?
A: 0.0798

Q: How did the “PBM E-score” value turn out when CGTTCGTC was run?
A: 0.358

Q: With ATAGTGGA as the sequence, how does the “PBM E-score” value read?
A: -0.0758

Q: For CATCGTGA, which “PBM E-score” value is on record?
A: 0.135

Q: CTTTAGCC was tested. Which “PBM E-score” value did it give?
A: -0.169

Q: With GGCCCCTA as the sequence, how does the “PBM E-score” value read?
A: -0.274

Q: For CTGTGAAC, which “PBM E-score” value is on record?
A: 0.0459

Q: CCCTTATC was tested. Which “PBM E-score” value did it give?
A: 0.0862

Q: For TAGGTCGA, which “PBM E-score” value is on record?
A: -0.0184

Q: ATCAATAC was tested. Which “PBM E-score” value did it give?
A: 0.178

Q: For GAGATGCC, which “PBM E-score” value is on record?
A: 0.0132

Q: Which “PBM E-score” value does the source give for GACAACGA here?
A: 0.135

Q: With AGTTTCAG as the sequence, how does the “PBM E-score” value read?
A: -0.0696

Q: Which “PBM E-score” value does the source give for ACCGGTCT here?
A: -0.212

Q: With ATGAAAAA as the sequence, how does the “PBM E-score” value read?
A: 0.0991

Q: AAGGACGC was tested. Which “PBM E-score” value did it give?
A: -0.094

Q: For CCGGACCC, which “PBM E-score” value is on record?
A: -0.239

Q: CAGTTAAG was tested. Which “PBM E-score” value did it give?
A: 0.0216

Q: For ACGGCTAC, which “PBM E-score” value is on record?
A: 0.0914

Q: Which “PBM E-score” value does the source give for CGTGAAGC here?
A: 0.0234

Q: TGAGGAAA was tested. Which “PBM E-score” value did it give?
A: -0.0382

Q: For ACCAACGT, which “PBM E-score” value is on record?
A: 0.143

Q: Which “PBM E-score” value does the source give for AAGAGTAG here?
A: 0.00631

Q: With ACATTCGC as the sequence, how does the “PBM E-score” value read?
A: -0.039

Q: AAGCGCGT was tested. Which “PBM E-score” value did it give?
A: -0.0852

Q: AAGTGGGT was tested. Which “PBM E-score” value did it give?
A: -0.0525

Q: With GGCAGACA as the sequence, how does the “PBM E-score” value read?
A: -0.0298

Q: For GCCCCAAA, which “PBM E-score” value is on record?
A: -0.139

Q: With TCGCTTCA as the sequence, how does the “PBM E-score” value read?
A: 0.078

Q: With ATAACGTC as the sequence, how does the “PBM E-score” value read?
A: 0.0479

Q: GCTTGAAA was tested. Which “PBM E-score” value did it give?
A: 0.0038

Q: How did the “PBM E-score” value turn out when GCGCTTCC was run?
A: -0.046

Q: ACCGCAAG was tested. Which “PBM E-score” value did it give?
A: 0.0196

Q: CTTTGTCA was tested. Which “PBM E-score” value did it give?
A: 0.271

Q: How did the “PBM E-score” value turn out when AGACTTCC was run?
A: -0.177

Q: With AGGAATGG as the sequence, how does the “PBM E-score” value read?
A: -0.188

Q: Which “PBM E-score” value does the source give for GATCATAC here?
A: 0.226

Q: Which “PBM E-score” value does the source give for CGACCTAG here?
A: 0.0412

Q: AATACACC was tested. Which “PBM E-score” value did it give?
A: 0.0439

Q: With ACATGTGA as the sequence, how does the “PBM E-score” value read?
A: -0.0437

Q: For CTGTTGAC, which “PBM E-score” value is on record?
A: -0.189

Q: For CAGGGTGG, which “PBM E-score” value is on record?
A: -0.175

Q: With ACTTTATA as the sequence, how does the “PBM E-score” value read?
A: 0.213

Q: ATACAAGC was tested. Which “PBM E-score” value did it give?
A: -0.0742

Q: Which “PBM E-score” value does the source give for CGACTGGC here?
A: -0.172

Q: For GATGACCA, which “PBM E-score” value is on record?
A: 0.191

Q: ATTCTACC was tested. Which “PBM E-score” value did it give?
A: 0.0177

Q: With CACATATC as the sequence, how does the “PBM E-score” value read?
A: 0.0968

Q: With ATCTGAGA as the sequence, how does the “PBM E-score” value read?
A: -0.0403

Q: Which “PBM E-score” value does the source give for CAAAATAA here?
A: 0.0118

Q: Which “PBM E-score” value does the source give for AGATACGC here?
A: -0.0877

Q: For ACGTCCTC, which “PBM E-score” value is on record?
A: -0.0913

Q: Which “PBM E-score” value does the source give for ATGTTCGA here?
A: 0.0272

Q: How did the “PBM E-score” value turn out when ATTGACTC was run?
A: -0.0611

Q: GCTCGGTA was tested. Which “PBM E-score” value did it give?
A: -0.0852

Q: How did the “PBM E-score” value turn out when AGCATAAC was run?
A: -0.0378

Q: TACGGATA was tested. Which “PBM E-score” value did it give?
A: 0.215

Q: Which “PBM E-score” value does the source give for GTCAGGGA here?
A: -0.148

Q: Which “PBM E-score” value does the source give for GCGCACAC here?
A: -0.204

Q: How did the “PBM E-score” value turn out when CGCAACGC was run?
A: -0.00976

Q: GGGGATAC was tested. Which “PBM E-score” value did it give?
A: -0.0778

Q: How did the “PBM E-score” value turn out when CAAGTCAC was run?
A: 0.207

Q: GAGCACCC was tested. Which “PBM E-score” value did it give?
A: -0.153

Q: Which “PBM E-score” value does the source give for ACAGTTTA here?
A: -0.0111

Source: the supplement of paper PMC3334620
